The target in one test is G3BP1-GFP (UniProt Q13283). Nature of the test: affinity purification with mass spectrometry.
For a further test, the target named is FUS(R522G)-GFP (human) (UniProt P35637). Nature of the test: affinity purification with mass spectrometry.

Protein sequences, listed by entry. Tags and fused reporters are not part of them. Lines headed by an entry give the natural chain unless they say otherwise; changes in a name come on top.
UniProt Q13283: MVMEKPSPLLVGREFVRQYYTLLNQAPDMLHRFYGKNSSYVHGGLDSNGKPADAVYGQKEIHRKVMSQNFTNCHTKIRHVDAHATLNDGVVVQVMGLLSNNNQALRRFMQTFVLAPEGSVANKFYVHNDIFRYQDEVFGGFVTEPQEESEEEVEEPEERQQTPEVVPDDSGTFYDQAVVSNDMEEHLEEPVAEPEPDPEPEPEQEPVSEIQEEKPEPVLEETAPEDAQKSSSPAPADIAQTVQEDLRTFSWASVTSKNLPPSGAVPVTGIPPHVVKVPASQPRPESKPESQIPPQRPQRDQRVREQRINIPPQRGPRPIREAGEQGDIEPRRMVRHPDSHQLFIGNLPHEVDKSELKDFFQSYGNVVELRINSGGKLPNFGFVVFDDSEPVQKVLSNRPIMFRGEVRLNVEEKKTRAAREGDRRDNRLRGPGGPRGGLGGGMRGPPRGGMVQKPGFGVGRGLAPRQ
UniProt P35637: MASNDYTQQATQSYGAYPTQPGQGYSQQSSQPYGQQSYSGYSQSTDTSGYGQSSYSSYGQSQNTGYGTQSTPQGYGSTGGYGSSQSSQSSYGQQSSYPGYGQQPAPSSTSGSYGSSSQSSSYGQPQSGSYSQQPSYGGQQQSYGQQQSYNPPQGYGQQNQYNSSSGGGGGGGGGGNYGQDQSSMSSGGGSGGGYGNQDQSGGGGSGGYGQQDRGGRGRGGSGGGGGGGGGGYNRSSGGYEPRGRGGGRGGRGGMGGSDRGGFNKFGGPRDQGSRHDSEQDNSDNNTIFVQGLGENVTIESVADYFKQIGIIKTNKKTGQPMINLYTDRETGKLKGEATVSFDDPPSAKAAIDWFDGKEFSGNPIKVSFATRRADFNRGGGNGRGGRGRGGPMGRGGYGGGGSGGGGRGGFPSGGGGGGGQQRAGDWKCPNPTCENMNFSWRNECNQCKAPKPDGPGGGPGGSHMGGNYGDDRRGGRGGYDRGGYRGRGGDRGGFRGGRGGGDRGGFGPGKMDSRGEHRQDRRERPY

These are yes or no findings as the source states them, for the method shown. In cells and extracts the contact can be indirect. Here binding means that the protein was enriched with, or labelled near, the bait; the list need not be complete.

B1: UPF1 (protein, UniProt Q92900 1-1129)
chain: MSVEAYGPSSQTLTFLDTEEAELLGADTQGSEFEFTDFTLPSQTQTPPGGPGGPGGGGAGGPGGAGAGAAAGQLDAQVGPEGILQNGAVDDSVAKTSQLLAELNFEEDEEDTYYTKDLPIHACSYCGIHDPACVVYCNTSKKWFCNGRGNTSGSHIVNHLVRAKCKEVTLHKDGPLGETVLECYNCGCRNVFLLGFIPAKADSVVVLLCRQPCASQSSLKDINWDSSQWQPLIQDRCFLSWLVKIPSEQEQLRARQITAQQINKLEELWKENPSATLEDLEKPGVDEEPQHVLLRYEDAYQYQNIFGPLVKLEADYDKKLKESQTQDNITVRWDLGLNKKRIAYFTLPKTDSGNEDLVIIWLRDMRLMQGDEICLRYKGDLAPLWKGIGHVIKVPDNYGDEIAIELRSSVGAPVEVTHNFQVDFVWKSTSFDRMQSALKTFAVDETSVSGYIYHKLLGHEVEDVIIKCQLPKRFTAQGLPDLNHSQVYAVKTVLQRPLSLIQGPPGTGKTVTSATIVYHLARQGNGPVLVCAPSNIAVDQLTEKIHQTGLKVVRLCAKSREAIDSPVSFLALHNQIRNMDSMPELQKLQQLKDETGELSSADEKRYRALKRTAERELLMNADVICCTCVGAGDPRLAKMQFRSILIDESTQATEPECMVPVVLGAKQLILVGDHCQLGPVVMCKKAAKAGLSQSLFERLVVLGIRPIRLQVQYRMHPALSAFPSNIFYEGSLQNGVTAADRVKKGFDFQWPQPDKPMFFYVTQGQEEIASSGTSYLNRTEAANVEKITTKLLKAGAKPDQIGIITPYEGQRSYLVQYMQFSGSLHTKLYQEVEIASVDAFQGREKDFIILSCVRANEHQGIGFLNDPRRLNVALTRARYGVIIVGNPKALSKQPLWNHLLNYYKEQKVLVEGPLNNLRESLMQFSKPRKLVNTINPGARFMTTAMYDAREAIIPGSVYDRSSQGRPSSMYFQTHDQIGMISAGPSHVAAMNIPIPFNLVMPPMPPPGYFGQANGPAAGRGTPKGKTGRGGRQKNRFGLPGPSQTNLPNSQASQDVASQPFSQGALTQGYISMSQPSQMSQPGLSQPELSQDSYLGDEFKSQIDVALSQDSTYQGERAYQHGGVTGLSQY
Turning to B1, the binding entry in the test with G3BP1-GFP and in the test with FUS(R522G)-GFP (human) was “binds” each time.

Values taken from paper doi:10.1101/2021.03.02.433611.
